Assay results: US20130142788A1
No constants are given. Whether binding was seen depends on the method and setting. Some results given as binding are weak or reduced against the parent protein; the word gives no strength.

Tests used:
[1] = target: T1, mature myostatin released from latent complex following BMP-1 cleavage (human and mouse (mature sequences 100% identical)); test: ELISA: antigen coated at 100 ng/well, 10B3 titrated, anti-mouse IgG F(ab')2-peroxidase, TMB, OD450
T1 sequence: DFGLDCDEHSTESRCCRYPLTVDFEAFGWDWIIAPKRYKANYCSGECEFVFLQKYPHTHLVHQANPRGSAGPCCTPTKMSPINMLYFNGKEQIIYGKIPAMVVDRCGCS

[2] = target: T1, mature myostatin released from latent complex following BMP-1 cleavage (human and mouse (mature sequences 100% identical)); test: ELISA, antigen coated
[3] = target: T1, mature myostatin released from latent complex following BMP-1 cleavage (human and mouse (mature sequences 100% identical)); test: ELISA, antigen coated at 100 ng/well

Measured: binding

B1: mouse monoclonal antibody 10B3 (antibody, mouse IgG2a, V domains shown)
VH: EVQLQQSGPELVKPGASVKISCKASGYSFTGYFMHWVKQSHGNILDWIGNIYPYNGVSNYNQRFKAKATLTVDKSSSTAYMELRSLTSEDSAVYYCARRYYYGTGPADWYFDVWGTGTTVTVSS
VL: DIKMTQSPSSMYASLRERVTITCKASQDINSYLSWFQQKPGKSPKTLIYRANRLVDGVPSRFSGSGSGQDYSLTISSLEYEDMGIYYCLQCDEFPLTFGAGTKLELK
binds: all assays above
